Data as given in publication PMC12040169 (PLOS Biology, 2025).
Some of the results follow.

system: T1, CTL2-GFP (C. trachomatis L2/434/Bu, GFP-expressing); parameters: species or system HeLa; Intracellular C. trachomatis growth in HeLa cells, bulk GFP fluorescence relative to DMSO; conditions: bulk GFP, single well; 28.5 h, 10 µM; inhibitor
T1 construct: L2/434/Bu, GFP-expressing

Structure (SMILES) | % of control remaining
CCCC(CCC)C(=O)Nc1ccc(NC(=O)c2ccco2)c(C)c1 [CBK058263] | 116.25%
Cc1cc(C(=O)N2CCCCCC2c2c(Cl)cnn2C)on1 (stereo not drawn) [CBK284916] | 85.475%
CCCC(=O)N1CCCC(c2nnc(-c3cccs3)o2)C1 (stereo not drawn) [CBK283057] | 127.494%
Nc1ccc(C(=O)Nc2nc3ccccc3s2)cc1 [CBK287608] | 97.0665%
OC(CSc1ccc(F)cc1)CN1CCN(c2ccc(C(F)(F)F)cn2)CC1 (stereo not drawn) [CBK074688] | 129.932%
Cc1cc2oc(=O)cc(C)c2cc1NC(=O)c1ccccc1C(=O)O [CBK286572] | 102.293%
O=C(Nc1nnc(-c2ccc3c(c2)OCCO3)o1)c1ccc2c(c1)OCCO2 [CBK287403] | 170.78%
Cn1ncc2c1C(=O)NC1c3ccccc3C(=O)N21 (stereo not drawn) [CBK113668] | 155.153%
COc1ccc(-n2c(SCC(=O)Nc3cccc(C(C)=O)c3)nc3sc(C)c(C)c3c2=O)cc1 [CBK091806] | 101.284%
COc1ccc(C2C(C(=O)O)c3ccccc3C(=O)N2C)cc1 (stereo not drawn) [CBK286847] | 133.454%
CC1CCN(S(=O)(=O)c2ccc(NC(=O)c3cccc(NC(=O)C(C)C)c3)cc2)CC1 [CBK265653] | 109.76%
CCc1c(C(=O)NCc2cc(C3CC3)[nH]n2)[nH]c2ccc(F)cc12 [CBK282501] | 130.666%
COc1ccc(NC(=O)c2cnc(-c3cccc(C)c3)c(-c3ccco3)c2)cc1 [CBK037491] | 112.069%
Cc1cccnc1C(c1ccc(F)cc1)N(C)C(=O)C1CCN(CCc2ccc(Br)cc2)CC1 (stereo not drawn) [CBK148397] | 80.1783%
COc1ccc([C@H]2CN(C(=O)c3ccccc3)[C@@H]3CCN(Cc4ccsc4)C[C@H]23)cc1 [CBK285585] | 88.1261%
Cc1cccc(-c2ccc(CC3(C(N)=O)CCN(C(=O)c4ccccc4)CC3)cc2)c1 [CBK285778] | 94.1899%
C=CCn1c(S)nnc1CCSCc1ccccc1 [CBK268849] | 137.234%
CC(C)NC(=O)N1Cc2nc[nH]c2C[C@H]1C(=O)NCc1ccco1 [CBK288974] | 131.409%
CN(C)c1cccc(C(=O)Nc2nc3ccc(S(N)(=O)=O)cc3s2)c1 [CBK287602] | 123.093%
CN1CCN(C(=O)c2ccccc2NC(=O)NC2CCCCC2)CC1 [CBK269771] | 135.547%
O=S(=O)(Nc1cccc(C(F)(F)F)c1)c1ccc(OC(F)(F)F)cc1 [CBK043554] | 83.8122%
O=C(CC1(O)C(=O)N(Cc2ccc3c(c2)OCO3)c2ccccc21)c1cccnc1 (stereo not drawn) [CBK269633] | 92.208%
O=C(O)c1cc(NC(=O)C2CC2)cc(C(=O)O)c1 [CBK268564] | 141.277%
O=C(CCC(=O)Nc1ccccc1)N/N=C/c1ccco1 [CBK261968] | 114.236%
O=c1nc(-c2ccco2)oc2ccccc12 [CBK152421] | 102.561%
COc1ccc(C2(C(=O)NCc3ccc(OC(F)(F)F)cc3)CC2)cc1 [CBK149823] | 100.962%

Structure (SMILES) | % of control remaining
Cc1cccnc1Nc1ccc(C2CCCCN2Cc2ccc3nccnc3c2)cn1 (stereo not drawn) [CBK286133] | 104.244%
COc1ccc(CNC(=O)c2cc(S(=O)(=O)N3CCOCC3)cs2)cc1 [CBK307577] | 122.486%
Cc1ccc(S(=O)(=O)N(C)CCCC#N)cc1 [CBK085945] | 125.403%
CC(=O)c1cc2cnccc2[nH]c1=O [CBK089771] | 155.269%
Cc1ccc2nc(CNC(=O)N(C)CCc3c(C)n[nH]c3C)cn2c1 [CBK306984] | 113.056%
O=S(=O)(c1ccc(C(F)(F)F)cc1Cl)N1CCN(Cc2ccc(F)cc2F)CC1 [CBK062739] | 94.11%
OCC(O)/C=N/Nc1nc(Nc2ccccc2)nc(N2CCCCC2)n1 (stereo not drawn) [CBK262042] | 90.8038%
CC(=O)N1CCC(NC[C@H]2C[C@@H]3CCN2C[C@@H]3c2cc(C3CCCC3)nc(C)n2)CC1 [CBK289129] | 136.172%
FC(F)(F)c1nc2ccccc2nc1SC1CCCCC1 [CBK107205] | 82.1575%
COc1cc(OC)nc(C(NC(=O)C2CCN(Cc3cccn3C)CC2)c2ccc(F)cc2)n1 (stereo not drawn) [CBK148170] | 105.151%
CSCCC(NC(=O)CCc1ccccc1)c1nnc2ccccn12 (stereo not drawn) [CBK304350] | 106.848%
CC(=O)Nc1cccc(-c2nccnc2NCc2ccc3c(c2)OCO3)c1 [CBK037972] | 131.124%
c1ccc(CNc2nc(-c3ccncc3)cs2)cc1 [CBK058609] | 135.3%
CCN(CC)CCOC(=O)NS(=O)(=O)c1ccc(Cl)cc1 [CBK288510] | 99.1791%
CCc1nn(CC(=O)N(CC)CC)c(=O)c2cc3sc(C)cc3n12 [CBK284121] | 137.169%
Cn1c(=O)n(CC(=O)NCc2ccccc2F)c2cccnc21 [CBK283909] | 115.969%
NC(=O)c1cc(Cc2ccccc2)sc1NC(=O)c1cccnc1 [CBK268168] | 121.927%
O=C(CSc1nnc(-c2cc(Br)ccc2O)n1-c1ccccc1)N1CCc2ccccc21 [CBK268346] | 146.988%
CC(C)Oc1cc(NC(=O)CS(=O)(=O)CC(=O)N(C)C)c(Cl)cc1Cl [CBK018112] | 120.873%
COc1ccc(C(C)C)cc1-c1ccnc2[nH]c(=O)ccc12 [CBK073735] | 103.077%
Cc1cc(COc2nccnc2OC2CCN(Cc3ccc(Cl)cc3)CC2)no1 [CBK082949T] | 122.126%
COc1cc(CN2CCN(Cc3ccccc3F)CC2)cc(OC)c1O [CBK264219] | 100%
CC1CCc2c(sc(NC(=O)CCN3C(=O)c4ccccc4C3=O)c2C(N)=O)C1 (stereo not drawn) [CBK263667] | 95.0265%
CN(CCOC(=O)c1cccs1)C(C)(C)C [CBK027559C] | 160.058%
CC(NC(=O)c1cc2ccccc2c(=O)[nH]1)c1ccc(-c2ccccc2)cc1 (stereo not drawn) [CBK297936] | 110.751%
O=C(Cn1nnc2ccccc21)Nc1ccc(Cl)cn1 [CBK296068] | 150.474%

Some of these compounds in order of heavy-atom count, high to low.
Structure (SMILES) | % of control remaining
O=C(CSc1nnc(-c2cc(Br)ccc2O)n1-c1ccccc1)N1CCc2ccccc21 [CBK268346] | 146.988%
Cn1c(=O)n(CC(=O)NCc2ccccc2F)c2cccnc21 [CBK283909] | 115.969%
CCCC(=O)N1CCCC(c2nnc(-c3cccs3)o2)C1 (stereo not drawn) [CBK283057] | 127.494%
C=CCn1c(S)nnc1CCSCc1ccccc1 [CBK268849] | 137.234%

More compounds:

Structure (SMILES) | % of control remaining
CC[C@H]1CN(C(=O)c2cccnc2)CC[C@H]1CC(=O)NCc1ccc(F)cc1 [CBK289143] | 120.327%
CS(=O)(=O)c1ccc(-c2ccc(C(=O)N3CCN(Cc4ccc(F)c(F)c4)CC3)nc2)cc1 [CBK160485] | 99.6197%
CCn1c(CN2CCCC2c2nc(N(C)C)ncc2-c2cccc(F)c2)nc2ccccc21 (stereo not drawn) [CBK286500] | 93.9093%
CCOc1ccc(-c2ccnc(N[C@H]3CC[C@@H](N)CC3)n2)cc1C(=O)O [CBK307104] | 158.82%
COc1ccccc1C1OC(=O)CC1C(=O)N1CCN(c2ccc(Cl)cc2)CC1 (stereo not drawn) [CBK091332] | 108.232%
Cc1ccc(C#N)c(NS(=O)(=O)c2cc(C)c(Cl)cc2C)c1 [CBK045250] | 59.8804%
CCOC(=O)c1cnn(C2CCCN(Cc3ccc(C#N)o3)C2)c1 (stereo not drawn) [CBK304045] | 80.429%
CCOc1cccc(-c2ccc(N(C)CCN(C)C)nc2)c1 [CBK036904] | 204.084%
OC1CCC(Nc2cncc(-c3ccc4ccccc4c3)n2)CC1 (stereo not drawn) [CBK065463] | 115.269%
NC(=S)N1N=C2CCCCC2C1c1ccccc1 (stereo not drawn) [CBK288371] | 160.588%
CCn1nc(C)c(CNC(=O)N(Cc2ccccn2)CC(C)C)c1C [CBK304193] | 98.5265%
Cc1ccc2nc(N(CCCN(C)C)C(=O)c3ccco3)sc2c1 [CBK287639] | 107.955%
Cc1cc(C(=O)Oc2cccc(NC3=NS(=O)(=O)c4ccccc43)c2)c2ccccc2n1 [CBK265302] | 108.924%
CC(C)(C)OC(=O)N1CCC(NC(=O)c2ccc(-c3ccc(S(C)(=O)=O)cc3)cn2)CC1 [CBK174352] | 141.508%
Clc1ccc(OCCCn2ccnc2)c(CN2CCSCC2)c1 [CBK307194] | 125.094%
COc1ccc(-n2nc3cc(C)c(NC(=S)NC(=O)c4oc5ccccc5c4C)cc3n2)cc1 [CBK264188] | 94.3766%
O=[N+]([O-])c1ccc2c(c1)oc1ccc(S(=O)(=O)N3CCCC3)cc12 [CBK268512] | 92.693%
Nc1ccc(S(=O)(=O)Nc2nccc(/C=C/c3ccc(Cl)cc3)n2)cc1 [CBK263254] | 52.6218%
COc1cccc2ncn(CCc3csc(N)n3)c(=O)c12 [CBK307679] | 100.089%
O=C(CSCCOc1ccc(Br)cc1)Nc1ccc2c(c1)OCCO2 [CBK296714] | 120.496%
COC(=O)CCC(=O)Nc1ccc(S(N)(=O)=O)cc1 [CBK261351] | 106.779%
CCn1cc(-c2cncn2CC(C)N2CCC(C)CC2)cn1 (stereo not drawn) [CBK281565] | 123.961%
NS(=O)(=O)c1ccc(NC2=NC(=O)C(CC(=O)Nc3ccccc3)S2)cc1 (stereo not drawn) [CBK266417] | 163.155%
COc1ccc(S(=O)(=O)NC(C)C(=O)NCc2cccnc2)cc1Cl (stereo not drawn) [CBK269384] | 120.088%
O=C(O)c1ccccc1SC1CC(=O)N(CCc2ccccc2)C1=O (stereo not drawn) [CBK269321] | 77.4011%
CC(C)(C)c1cn(C[C@H]2CC3CCN2C[C@@H]3C(=O)N2CCOCC2)nn1 (stereo partly drawn) [CBK288735] | 137.991%
